Test results: US20250129143A1

Target: Stv.
Assay: bio-layer interferometry, streptavidin sensor; 'anti-Stv.' is read as clone A against streptavidin without ubiquitin [panel B, Clone A]

B1: anti-ubiquitin monobody clone A, Monobody-Nus tag-His6 recombinant protein (designed binder, not shown: small tags and cut ends)
chain: LEVVEASPTSIQISWDAYPYYIIGETVRYYRITYGETGGNSPVQEFTVPGSKSTATISGLKPGVDYTITVYAVTYYGNAFWGWPPISINYRTHHHHHH
In the case of B1, the binding is reported as “no binding (tested: 20 nM)”.

No constants are given. Whether binding was seen depends on the method and setting. Sequences can lack the tags named with a protein.
